From patent publication US12539284B2, “Aminoxy acid-based anti-cancer stem cell compounds and methods thereof” (Westlake University, priority 2019, dated 2026)
Some entries share one result that the patent states for a list of compounds. At least one structure is not confirmed: it was looked up by name or label, or the drawing left a doubt.

Tested on: HEY A8 cells
Assay: Mitochondrial membrane potential (JC-1 red to green ratio)
Format: cell-based, human
Settings: kinetic study, FIG. 8b
Experimental: A suspension of HEY A8 cells at the concentration of 5×10^4 cells/mL in DMEM medium were seeded into 30-mm cell culture dishes with glass bottom (MatTek). Cells were incubated at 37° C. in a humidified atmosphere containing 5% CO2 for 24 h. Medium was aspirated and cells was washed with PBS buffer twice. Then 1 mL HBSS buffer containing 2.5 μM JC-1 was added. Cells were incubated at 37° C. for 20 min before the buffer was aspirated. Cells were washed with PBS buffer twice and treated with cation transporters for 10 min. Fluorescence was monitored by confocal imaging with ZEISS LSM 780 (Red channel: λex=543 nm, Green channel: λex=488 nm). Quantitative data were obtained using the ZEN and Graph Pad Prism software packages.
The Kinetic study of this compound on the MMP in HEY A8 cells was also conducted. Compound sff-2-112 (“Example 1”) or sff-2-132 (“Example 4”) at the final concentration of 10 μM was added at 180 s. The interval for each image was 30 s. The decrease in red to green fluorescence ratio of JC-1 indicates MMP depolarization.

| SMILES | time to mitochondrial membrane potential depolarization upon addition [s] |
| --- | --- |
| CC(C)(C)OC(=O)[C@@H](COCc1ccccc1)ONC(=O)c1cc(C(F)(F)F)cc(C(F)(F)F)c1 [sff-2-132] | ≤ 30 |
| O=C(NO[C@H](COCc1ccccc1)C(=O)Nc1ccccc1)c1cc(C(F)(F)F)cc(C(F)(F)F)c1 [sff-2-112] | ≤ 30 |
